Source: patent publication US8252796B2, “1-butyl-2-hydroxyaralkyl piperazine derivatives and the uses as anti-depression medicine thereof” (CSPC Zhonggi Pharmaceutical Technology (Shijiazhuang) Co. …, priority 2008, dated 2012)
Some entries of the source have several records that differ or are many. They are shown here; other results are not. An entry can have further records. Values given together differ, and nothing given here explains why; they may come from other doses, times, organisms or constructs than stated.

Test system: mice
Test: Oral administration acute toxicity in mice
Conditions: male & female, tested form: racemate (erythro), hydrochloride, 2 mol

Q: `CCCC[C@@H]([C@H](O)c1ccc2c(Cl)c(OC)ccc2c1)N1CCN(Cc2ccccc2)CC1` was tested. Which “MLD (minimum lethal dosage)” value did it give?
A: Its value is “more than 2844.7 mg/kg and > 2844.7 mg/kg”.
